Laboratory results as given in PubChem BioAssay AID504834 (National Center for Advancing Translational Sciences (NCATS), 2011).
Hit rate of the full screen: of about 320,000 compounds, about 22,000 (6.9%) were called active. The shares of active, inactive and inconclusive entries below differ from those in the screen. The call rests on the fitted dose curve; in most records, active means well fitted inhibition curve with a large enough effect; inconclusive means small, poorly fitted or top-dose-only effect, or another doubt; inactive means no such curve, though single readings can be large or run the other way. A potency beside an inconclusive call is a rough fit, not a confirmed value.

Assay: Primary qHTS for delayed death inhibitors of the malarial parasite plastid, 96 hour incubation
Settings: P. falciparum luciferase reporter growth; series mostly up to 28.7 µM
In short: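 Two-generation exposure (96 h) targets delayed-death phenotype. Reporter parasites carrying integrated firefly luciferase, in red cells at 2% hematocrit and 0.05% parasitemia final, kept at 37 C, 5% CO2; luminescence loss indicates inhibition.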
Potency means the concentration at half of the fitted maximal effect.

Compound	Potency
CCN(Cc1ccccc1)C(=O)Cn1c(=O)oc2ccccc21	inconclusive: 4.65 µM [inhibitor, full curve, poor fit]
CCCCCCCOC(=O)C[N+](C)(C)CCOC1CC2CCC1(C)C2(C)C (centres undefined)	active: 13.1 µM
CCOc1ccc2c(c1)s/c(=N\S(=O)(=O)c1ccc(OC)cc1)n2C(F)F	inconclusive: 4.65 µM [inhibitor, partial curve, poor fit]
COc1cccc(C(=O)C2=NN(C(C)=O)CC2c2ccco2)c1 (centres undefined)	inconclusive: 9.28 µM [inhibitor, single point]
C=CCn1c(C)cc(C(=O)CSc2nnc(NCc3ccccc3)s2)c1C	inconclusive: 13.1 µM [inhibitor, single point]
CCCCN(CCCC)c1nc(OC)nc(-n2nnc(C(C)=O)c2C)n1	inconclusive: 16.5 µM [inhibitor, partial curve]
Fc1cccc(Cl)c1Cn1ncc2ccccc21	inactive
CCCS(=O)(=O)N1CCCC(C(=O)NCCCN(C)c2ccccc2)C1 (centres undefined)	inconclusive: 0.0828 µM [inhibitor, full curve, poor fit]
COc1ccccc1NC(=O)CN1CCC(n2c(C)nc3cc(F)ccc32)CC1	inconclusive: 18.5 µM [inhibitor, single point]
COc1cccc(NC(=O)CSc2nc3c(sc4ccccc43)c(=O)n2CCN(C)C)c1	inconclusive: 3.29 µM [inhibitor, partial curve]
COc1ccccc1C(=O)NNC(=O)c1csc(N2CCOCC2)n1	inactive
CCOc1ccc(Cn2ccnc2)cc1[N+](=O)[O-]	inactive
COc1ccc(-n2cc(CNCCc3cnc[nH]3)c(-c3cccc(F)c3)n2)cc1	inconclusive: 5.22 µM [inhibitor, partial curve]
CCN1C(=O)/C(=C\c2ccc(-c3ccc([N+](=O)[O-])cc3OC)o2)SC1=Nc1cccc(C(=O)O)c1	inconclusive: 0.522 µM [inhibitor, full curve, poor fit]
O=C(N/N=C/c1cc2c(cc1Cl)OCO2)c1ccc2c(c1)OCCO2	inconclusive: 18.5 µM [inhibitor, single point]
CN1c2ccsc2C(O)=C(C(=S)Nc2ccc(F)c(Cl)c2)S1(=O)=O	inconclusive: 14.7 µM [inhibitor, single point]
CC(Sc1nncn1C)C(=O)NCc1ccc2c(c1)OCO2 (centres undefined)	inconclusive: 20.8 µM [inhibitor, single point]
CSc1nc(Cl)c(Cc2ccc(OCC(C)C)cc2)c(N2CCOCC2)n1	inconclusive: 2.94 µM [inhibitor, partial curve, poor fit]
O=[N+]([O-])c1ccc(C2=NCCO2)cc1	inactive
COc1cccc(-c2cnc(OC(C)(C)C)nc2OC(C)(C)C)c1	inconclusive: 18.5 µM [inhibitor, single point]
Cc1cccc(C)c1NC(=O)c1sc(Cl)nc1C	inactive
O=C(O)CN(c1ccccc1F)S(=O)(=O)c1ccccc1	inconclusive: 8.28 µM [inhibitor, partial curve, poor fit]

Compound	Potency
CNC[C@H](CC1CCCCC1)NC[C@H](NCCC1CCCC1)[C@H](C)O	active: 11.7 µM
COc1cc(OC)c2c(-c3ccccc3)cc(=O)oc2c1	inactive
CCOC(=O)CCNC(=O)N1CCC(CCC(=O)NCc2ccc(F)cc2)CC1	inconclusive: 7.38 µM [inhibitor, partial curve]
COc1cccc(Cn2c(NCC(C)C)nc3c2c(=O)n(C)c(=O)n3C)c1	inconclusive: 14.7 µM [inhibitor, partial curve, poor fit]
COCc1cc(=O)[nH]c(Nc2nc3ccc(C)cc3o2)n1	inconclusive: 2.33 µM [inhibitor, full curve]
COCC1CCN(Cc2cn[nH]c2-c2cc(OC)c(OC)c(OC)c2)CC1	inconclusive: 10.4 µM [inhibitor, single point]
COc1ccc(NS(=O)(=O)c2cc(NC(=O)c3ccc(=O)[nH]n3)ccc2C)cc1	inconclusive: 18.5 µM [inhibitor, single point]
O=C(CSc1nnc(-c2cccnc2)n1Cc1ccco1)c1ccccc1	inactive
CC(C)C1C(c2ccccc2)NC(c2ccccc2)CC1(O)c1ccc(F)cc1 (centres undefined)	inconclusive: 2.33 µM [inhibitor, full curve]
O=C(Nc1ccccc1O)c1ccc2c(c1)C(=O)N(c1ccccc1)C2=O	inconclusive: 18.5 µM [inhibitor, single point]
O=C(Nc1ccc(N2CCOCC2)cc1)c1ccc(Cl)c(S(=O)(=O)N2CCCC2)c1	inconclusive: 14.7 µM [inhibitor, partial curve, poor fit]
CS(=O)(=O)N(CC(=O)NCC1CCCO1)c1cc(Cl)cc(Cl)c1 (centres undefined)	inactive
Cc1cc(C)cc(-n2ccnc2SCC(=O)c2c(N)n(C3CC3)c(=O)[nH]c2=O)c1	inconclusive: 0.928 µM [inhibitor, partial curve, poor fit]
COc1cccc2c1OCC(C(=O)OCc1cccnc1)=C2	inactive
COc1ccccc1N(CC(=O)N(CC(C)C)CC(C)C)S(=O)(=O)c1cccs1	inconclusive: 10.4 µM [inhibitor, single point]
COc1cc(-c2noc(C)c2-c2ccc(N(C)C)nc2)cc(OC)c1OC	inconclusive: 18.5 µM [inhibitor, single point]
CCOC(=O)c1cnc(SC)nc1N	inactive
Cc1ccc2[nH]c(=O)c(-c3nc4ccccn4c3NCc3ccco3)cc2c1	active: 4.65 µM
NC(=O)C1CCN(c2cc(Cl)ccc2[N+](=O)[O-])CC1	inactive
NC1=NC(=O)C(CC(=O)Nc2ccc3c(c2)OCO3)S1 (centres undefined)	inconclusive: 13.1 µM [inhibitor, single point]
CC(=O)Oc1ccccc1C(=O)NC(C)CCc1ccccc1 (centres undefined)	inconclusive: 6.57 µM [inhibitor, partial curve, poor fit]
C=CCNC(=S)/N=c1/ccccn1Cc1ccccc1	inconclusive: 18.5 µM [inhibitor, single point]

Exported in CSV form: entries from further up
Compound,Potency
COc1ccccc1N(CC(=O)N(CC(C)C)CC(C)C)S(=O)(=O)c1cccs1,"inconclusive: 10.4 µM [inhibitor, single point]"
COc1cc(-c2noc(C)c2-c2ccc(N(C)C)nc2)cc(OC)c1OC,"inconclusive: 18.5 µM [inhibitor, single point]"
